Experimental findings from PMC6016461 are described below.

Results are given in words; binding and its absence hold for the method and conditions named. In cells and extracts the contact can be indirect. Where a sequence is shown, tags or fusion partners need not be part of it.

Common to all, as to experiment: pull-down; purified Strep-tagged NafY, NifY or NifW immobilised on Strep-Tactin XT resin; A. vinelandii cell-free extract (MoFe protein without Strep-tag) passed over; anoxic buffer C (50 mM Tris-HCl pH 7.9, 2 mM Na2S2O4, 350 mM NaCl), 10 column volumes wash; eluted with 50 mM biotin; SDS-PAGE; some samples further run on Superose 12 to remove excess bait; only the target purified

Assay [1] has as its target T1, Strep-tagged NifW (A. vinelandii) (UniProt P14888).
T1 sequence: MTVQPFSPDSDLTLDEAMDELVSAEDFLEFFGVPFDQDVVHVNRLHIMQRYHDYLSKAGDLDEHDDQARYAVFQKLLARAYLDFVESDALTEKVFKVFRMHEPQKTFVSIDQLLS

Assay [2] addresses T2, Strep-tagged NafY (A. vinelandii) (UniProt Q9F5X9).
T2 sequence: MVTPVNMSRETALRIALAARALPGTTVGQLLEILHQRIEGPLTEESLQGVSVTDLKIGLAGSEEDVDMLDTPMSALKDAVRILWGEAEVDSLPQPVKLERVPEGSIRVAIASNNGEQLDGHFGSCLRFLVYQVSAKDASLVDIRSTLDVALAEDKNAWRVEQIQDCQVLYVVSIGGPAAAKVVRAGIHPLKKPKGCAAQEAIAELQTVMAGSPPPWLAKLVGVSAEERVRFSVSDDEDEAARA

Assay [3] has as its target T3, Strep-tagged NifY (A. vinelandii) (UniProt P14886).
T3 sequence: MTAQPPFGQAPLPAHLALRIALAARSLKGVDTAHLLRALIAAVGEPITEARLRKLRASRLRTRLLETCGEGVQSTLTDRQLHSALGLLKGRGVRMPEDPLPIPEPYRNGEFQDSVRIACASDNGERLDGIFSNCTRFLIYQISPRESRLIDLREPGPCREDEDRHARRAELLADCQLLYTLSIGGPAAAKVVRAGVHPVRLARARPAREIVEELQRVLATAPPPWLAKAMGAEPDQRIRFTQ

B1: NifZ (protein, UniProt P14889 1-159)
chain: MLPQFEYGDEVRLIRNVRNDGTYPGMNTGALLMRRGAVGCVYDVGTYLQDQLIYRVHFLDEGRTIGCREEELILASAPWIPNLFEFRDDVIATRSLAVRGQVLVKRGQLGSIMKVLRDEPELGIQYHVHFGDGLVLQVPEQSLAMADSTAAIEEVLDGI
Regarding B1, in assay [1], the binding result was “no binding”.

B2: NifY (protein, UniProt P14886 1-242)
chain: T3 sequence
As for B2, in assay [2], the binding result was “no binding”.

B3: NafY (protein, UniProt Q9F5X9 1-243)
chain: T2 sequence
As to B3, in assay [3], the binding result is “no binding”.
